This is an account of results in article PMC7021753.

The chains behind the UniProt entries cited, without tags or fusion partners.
UniProt Q94517: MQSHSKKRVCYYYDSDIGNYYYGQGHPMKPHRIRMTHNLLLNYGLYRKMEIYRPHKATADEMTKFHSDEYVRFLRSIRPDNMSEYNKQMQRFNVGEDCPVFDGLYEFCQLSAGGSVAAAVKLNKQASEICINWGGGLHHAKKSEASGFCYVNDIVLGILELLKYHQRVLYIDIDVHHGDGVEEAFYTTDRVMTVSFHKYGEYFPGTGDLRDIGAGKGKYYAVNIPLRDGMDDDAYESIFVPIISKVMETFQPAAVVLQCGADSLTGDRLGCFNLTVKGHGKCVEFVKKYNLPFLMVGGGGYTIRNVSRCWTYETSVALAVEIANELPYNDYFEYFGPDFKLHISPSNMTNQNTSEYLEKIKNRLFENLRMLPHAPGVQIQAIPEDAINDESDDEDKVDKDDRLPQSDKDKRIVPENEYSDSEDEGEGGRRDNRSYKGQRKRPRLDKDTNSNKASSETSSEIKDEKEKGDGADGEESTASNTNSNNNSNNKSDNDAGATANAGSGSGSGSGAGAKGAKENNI

The target of the experiment is SU(VAR)2-1-EGFP fusion protein (Drosophila melanogaster) (UniProt Q9VL20). The experiment in a line: co-IP; SU(VAR)2-1-EGFP captured on GFP-Trap magnetic beads from larval salivary gland extract (100 glands; lysis buffer 20 mM HEPES pH 7.7, 450 mM NaCl, 0.25% NP40, diluted); washes incl. 500 mM NaCl; Western blot with EGFP and RPD3 polyclonal antibodies; two independent immunoprecipitations.

These are yes or no findings as the source states them, for the method shown. Binding seen in cells or lysates may run through a third protein. Binding calls can cover weak binding; strength is not graded here.

As for “histone deacetylase RPD3 (from UniProt Q94517 1-521) (enzyme)”, the binding result is “binds”.
